# According to PubChem BioAssay AID2073 (Sanford-Burnham Center for Chemical Genomics, 2009):
# Amino acid sequences for entries named in this document (tags omitted).
# UniProt Q00975, whole entry, looked up: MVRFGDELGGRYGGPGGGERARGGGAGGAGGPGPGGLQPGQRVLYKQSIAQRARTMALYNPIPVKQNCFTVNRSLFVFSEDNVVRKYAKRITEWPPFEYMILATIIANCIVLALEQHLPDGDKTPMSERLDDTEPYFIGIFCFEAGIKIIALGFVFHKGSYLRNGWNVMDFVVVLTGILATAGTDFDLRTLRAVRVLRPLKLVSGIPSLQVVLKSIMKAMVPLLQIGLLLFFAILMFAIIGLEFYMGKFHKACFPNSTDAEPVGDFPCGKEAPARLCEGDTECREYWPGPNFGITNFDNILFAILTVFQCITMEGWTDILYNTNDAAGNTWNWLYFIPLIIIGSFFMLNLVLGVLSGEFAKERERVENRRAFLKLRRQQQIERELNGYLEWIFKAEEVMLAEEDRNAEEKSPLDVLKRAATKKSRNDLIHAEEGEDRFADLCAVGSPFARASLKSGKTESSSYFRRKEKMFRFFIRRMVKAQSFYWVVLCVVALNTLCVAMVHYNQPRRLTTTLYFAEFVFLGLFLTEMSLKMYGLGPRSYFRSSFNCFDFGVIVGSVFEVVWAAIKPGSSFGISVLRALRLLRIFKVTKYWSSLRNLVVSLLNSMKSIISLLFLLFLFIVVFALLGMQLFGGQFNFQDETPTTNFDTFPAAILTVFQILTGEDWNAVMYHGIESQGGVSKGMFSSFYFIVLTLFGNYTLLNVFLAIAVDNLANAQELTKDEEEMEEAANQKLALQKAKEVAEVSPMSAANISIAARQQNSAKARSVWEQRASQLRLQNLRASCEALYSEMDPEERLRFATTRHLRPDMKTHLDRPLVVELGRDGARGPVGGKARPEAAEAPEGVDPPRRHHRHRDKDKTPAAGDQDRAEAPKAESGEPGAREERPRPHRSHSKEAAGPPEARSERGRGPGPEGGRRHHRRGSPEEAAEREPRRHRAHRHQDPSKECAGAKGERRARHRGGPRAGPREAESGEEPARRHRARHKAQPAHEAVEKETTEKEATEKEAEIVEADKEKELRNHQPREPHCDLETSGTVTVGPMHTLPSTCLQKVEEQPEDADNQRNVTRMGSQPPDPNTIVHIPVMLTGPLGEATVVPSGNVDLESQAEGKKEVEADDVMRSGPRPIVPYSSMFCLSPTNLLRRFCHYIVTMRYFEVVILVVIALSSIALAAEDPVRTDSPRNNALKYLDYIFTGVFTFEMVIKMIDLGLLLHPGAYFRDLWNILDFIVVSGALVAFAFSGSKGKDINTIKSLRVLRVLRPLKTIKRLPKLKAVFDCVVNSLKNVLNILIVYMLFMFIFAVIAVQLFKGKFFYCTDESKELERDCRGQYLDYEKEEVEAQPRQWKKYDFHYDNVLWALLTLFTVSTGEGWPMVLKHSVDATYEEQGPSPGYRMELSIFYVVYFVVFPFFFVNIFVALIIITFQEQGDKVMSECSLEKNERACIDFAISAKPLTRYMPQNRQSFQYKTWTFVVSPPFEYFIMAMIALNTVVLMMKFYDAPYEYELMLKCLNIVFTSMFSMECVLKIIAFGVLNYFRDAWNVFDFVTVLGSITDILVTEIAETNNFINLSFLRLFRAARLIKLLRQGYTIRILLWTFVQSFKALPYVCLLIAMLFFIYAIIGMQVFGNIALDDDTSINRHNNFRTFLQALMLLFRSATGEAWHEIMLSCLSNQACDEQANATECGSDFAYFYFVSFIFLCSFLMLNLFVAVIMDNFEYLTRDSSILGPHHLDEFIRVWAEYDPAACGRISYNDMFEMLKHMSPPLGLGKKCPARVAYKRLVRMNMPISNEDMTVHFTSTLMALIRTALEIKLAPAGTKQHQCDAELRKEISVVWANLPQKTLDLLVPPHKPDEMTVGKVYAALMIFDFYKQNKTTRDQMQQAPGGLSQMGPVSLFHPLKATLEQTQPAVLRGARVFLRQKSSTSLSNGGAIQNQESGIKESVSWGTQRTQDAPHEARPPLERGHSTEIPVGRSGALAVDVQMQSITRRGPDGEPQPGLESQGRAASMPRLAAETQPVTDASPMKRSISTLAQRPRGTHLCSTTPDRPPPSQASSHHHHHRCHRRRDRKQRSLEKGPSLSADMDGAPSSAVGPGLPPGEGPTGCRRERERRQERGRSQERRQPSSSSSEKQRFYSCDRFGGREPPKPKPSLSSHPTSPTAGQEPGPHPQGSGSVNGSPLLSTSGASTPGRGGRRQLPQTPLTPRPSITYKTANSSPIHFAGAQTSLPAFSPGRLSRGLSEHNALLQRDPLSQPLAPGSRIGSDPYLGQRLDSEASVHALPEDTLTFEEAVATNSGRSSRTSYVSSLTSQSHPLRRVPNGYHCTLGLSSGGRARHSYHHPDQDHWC
# The whole screen tested about 290,000 compounds, of which about 570 (0.2%) were called active. Inconclusive means that the source gave no clear call. Such entries were picked first, then a sample of the others. No stated cut-off is given here; in the data, active means inhibition mostly above about 51% (no sharp cut-off); inconclusive means no clear call, values can overlap the other calls; inactive means mostly below about 53%.
# Biological target: Voltage-dependent N-type calcium channel subunit alpha-1B (Homo sapiens) (UniProt Q00975)
# Assay: disruptors of CaV2.2 binding to Mint1 – biochemical, HTRF (AID 2073)
# Settings: HTRF protein-protein interaction, Mint1-CaV2.2; at 20 µM; hits give high values
row,Structure (SMILES),inhibition
1,Cc1cc(=O)[nH]c(Nc2cccc(C(F)(F)F)c2)n1,inactive: -2.3%
2,N#Cc1c(-c2ccccc2)cc(-c2ccc(O)cc2)nc1N,inconclusive: 60.3%
3,Cc1ccc(S(=O)(=O)CC(N)=O)cc1,inconclusive: 70.9%
4,O=C(CN1CCOCC1)Nc1cccc(S(=O)(=O)N2CCCCCC2)c1,inactive: -5.9%
5,COc1cccc(NC(=S)N(Cc2ccc(C(=O)O)cc2)Cc2ccc(OC)c(OC)c2)c1,inconclusive: 63%
6,COc1cc(NC(=O)c2ccc(Cl)cc2Cl)ccc1-c1cc2ccccc2oc1=O,inconclusive: 52.9%
7,COC(=O)c1ccccc1NC(=O)CN1CCC(NC(=O)c2ccc(C)cc2)CC1,inactive: -3.1%
8,CC1=CC(=C(C#N)C#N)C=C(C)N1Cc1ccccc1,inactive: -8.3%
9,COc1ccc(C(=O)NCc2ccc(N3CCN(C)CC3)cc2)cc1,inconclusive: 74.8%
10,Nc1ccc(-c2nc3ccc(N)cc3s2)cc1,inconclusive: 60.1%
11,CNC(=S)c1cc(C(C)(C)C)c(O)c(C(C)(C)C)c1,inconclusive: 54.7%
12,Cc1cc(N2CCN(C3CCCC3)CC2)n2c(nc3ccccc32)c1C#N,inconclusive: 51.3%
13,COC(=O)c1ccccc1NC(=O)COc1ccc(S(=O)(=O)N2CCCC2)cc1C,inactive: 6.4%
14,CO/N=C/C(=N\Nc1cc(OC)cc(OC)c1)C(=O)c1ccccc1,inconclusive: 58.9%
15,CCCCCSc1nc2c(cnn2-c2ccc(F)cc2)c(=O)[nH]1,inconclusive: 68%
16,O=C(/C=C/c1ccc2c(c1)OCO2)Nc1ccc(Cl)cn1,inconclusive: 66%
17,Cc1cccc(OCC(=O)NCCN2CCOCC2)c1,inconclusive: 51.3%
18,C#CCNC(=O)C1=C[C@@H](c2cn(C(C)=O)c3ccccc23)C[C@@H](OCc2ccc(CO)cc2)O1,inconclusive: 53.8%
19,CCCCN(C)C(=O)c1c[nH]c2ccc(S(=O)(=O)N3CCOCC3)cc2c1=O,inactive: 24.6%
20,CCNC(=O)N1C(=O)C2(OCCO2)c2cc(Br)ccc21,inconclusive: 70.7%
21,Oc1ccc(C=Nc2ccc3ncccc3c2)c(O)c1,inconclusive: 69.7%
22,COc1ccc(CNC(=O)CSc2nnc(C)s2)cc1,inconclusive: 61.6%
23,CN(C)S(=O)(=O)N1CCC(Oc2ccc(C(=O)N3C[C@H]4CC[C@H]3C4)cc2)CC1,inconclusive: 66.1%
24,Clc1ccc(OCCSCc2nc3ccccc3[nH]2)cc1,inconclusive: 76.7%
25,CN(C)c1ccc(O)c2c1CC1CC3[C@@H](N(C)C)C(=O)C(C(N)=O)=C(O)[C@]3(O)C(=O)C1=C2O (stereo not given in full),inactive: 22.3%
26,Cc1ccc(/C=C2\Oc3c(ccc(O)c3CN3CCN(C)CC3)C2=O)cc1,inconclusive: 63.5%
27,Clc1ccc(/C=C/c2ncc3ccccn23)cc1,inconclusive: 70.8%
28,O=C(N/N=C/c1ccc([N+](=O)[O-])o1)c1cn(-c2ccccc2)nc1-c1ccc(Cl)cc1,active: 67.5%

# Some of the entries so far, as tab-separated lines:
row	Structure (SMILES)	inhibition
15	CCCCCSc1nc2c(cnn2-c2ccc(F)cc2)c(=O)[nH]1	inconclusive: 68%
16	O=C(/C=C/c1ccc2c(c1)OCO2)Nc1ccc(Cl)cn1	inconclusive: 66%
17	Cc1cccc(OCC(=O)NCCN2CCOCC2)c1	inconclusive: 51.3%
18	C#CCNC(=O)C1=C[C@@H](c2cn(C(C)=O)c3ccccc23)C[C@@H](OCc2ccc(CO)cc2)O1	inconclusive: 53.8%

# Next records

row,Structure (SMILES),inhibition
1,COc1ccccc1N1C(=O)C2C(C(=O)c3ccccc3)=NN(c3ccccc3)C2C1=O (stereo not given),inconclusive: 55.1%
2,CCOC(=O)N1CCN(c2ccccc2OC)CC1,inactive: -13.4%
3,CCOC(=O)CNc1c(-c2ccc(Cl)cc2)nc2cnccn12,inconclusive: 60.3%
4,C[C@@]12CCC=C[C@H]1[C@H](c1ccc3ccccc3c1Br)N(Cc1ccccc1)C2=O,inconclusive: 51.9%
5,O=c1[nH]c(SCc2n[nH]c(=S)n2-c2ccccc2)nc2sc3c(c12)CCC3,inactive: 17.3%
6,COc1cc(C(=O)NCCC(=O)NCCCN2CCCCC2)cc(OC)c1OC,inactive: -4%
7,COc1cccc(CN2CCC(n3nccc3NC(=O)CCCc3ccccc3)CC2)c1,inconclusive: 72.4%
8,O=C(Cn1cnc2c(nnn2Cc2ccccc2)c1=O)Nc1ccc2c(c1)OCCO2,inconclusive: 58.2%
9,Cc1ccc(OC(=O)c2cc(C)nn2C(C)(C)C)cc1,inconclusive: 76.8%
10,COc1cc(/C=C(\C#N)c2nc(-c3cc4ccccc4oc3=O)cs2)ccc1O,inactive: 23.3%
11,Clc1ccccc1CSc1nnc(-c2ccco2)c(-c2ccco2)n1,inconclusive: 51.5%
12,CC(C)Cn1c(CN2CCN(c3ccccc3F)CC2)nc2c1c(=O)[nH]c(=O)n2C,inconclusive: 64.5%
13,O=C(Nc1ccc([N+](=O)[O-])cc1Br)c1cccnc1,inconclusive: 56.3%
14,C=CCNc1nc(NCc2ccccc2)nc(OCC)n1,inconclusive: 51.3%
15,CN(CC(=O)Nc1ccccc1Cl)C(=O)CSc1ncc(C(F)(F)F)cc1Cl,inconclusive: 62.1%
16,COc1ccc(OCc2nc3c4c(ncn3n2)-c2ccccc2CC42CCCC2)cc1,inconclusive: 60.4%
17,CCOc1cc(C(c2c(C)[nH][nH]c2=O)c2c(C)[nH][nH]c2=O)cc(Br)c1OC,inactive: 5.6%
18,CCOC(=O)CNc1nc(Cl)nc(N2CCCCC2)n1,inactive: 6.2%
19,C#CCOCCOCCOCCNc1nc(N2CCN(C(=O)[C@H](Cc3cc4ccccc4[nH]3)n3cc([C@@H](N)Cc4ccc(O)cc4)nn3)CC2)nc(N2CCN(C(=O)[C@H](Cc3cc4ccccc4[nH]3)n3cc([C@@H](N)CC(C)C)nn3)CC2)n1,active: 51.5%
20,CCN1CCN(CC(=O)Nc2ccc3c(c2)OCO3)C(=O)C1=O,inconclusive: 51.2%
21,COc1ccc(CNC(=O)CCn2c(=O)oc3ccccc32)cc1,inconclusive: 58%
22,CCNc1nc(NCC)nc(ON=C(C)C)n1,inconclusive: 56.4%
23,OC[C@@H]1CCCN1Cc1cn(-c2ccccc2)nc1-c1ccc2c(c1)OCO2,inactive: 8.1%
24,CCN(CC)C(=O)Oc1ccc2c(c1)O/C(=C\c1ccco1)C2=O,inconclusive: 76%
25,O=C(/C=C/c1ccoc1)c1ccccc1O,inconclusive: 59.5%
26,Fc1ccccc1Cn1c2[n+](c3ccc(C(F)(F)F)cc31)CCCCC2,inconclusive: 53.9%
27,COc1ccc(CCNC(=O)C2CC(c3cc(C(F)(F)F)cc(C(F)(F)F)c3)=NO2)cc1 (stereo not given),inactive: 0.2%
